Values from PubChem BioAssay AID602196 (INSERM, 2012)

- Aim: 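Knock-downs that protect lung cancer cells from cisplatin or sensitise them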
- System: human A549 lung cancer cells
- Reagent: siRNA pair against human genes
- Timing: 48 h transfection before cisplatin; time from cisplatin to read-out not stated
- Conditions: cisplatin at a dose killing half of control-siRNA cells; exact dose and duration not given
- Measured: 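Shift in cisplatin death relative to control siRNA, from -50 (all cells die) to +50 (no cells die); siRNAs harmful on their own scored 0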
- Scale: two-siRNA summed score (-2 to +2): higher = both siRNAs protect from cisplatin killing; -2 means both sensitise; mean protection from cisplatin (shift in death) and protection from cisplatin (shift in death), siRNA C and protection from cisplatin (shift in death), siRNA D: higher = protection from cisplatin killing
- Call rule: 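siRNAs harmful alone (LDH or WST-1) get 0; others get +1 for less and -1 for more cisplatin killing; genes are active when the two siRNAs give the same sign, summing to ±2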
- Calls: active = both siRNAs shift cisplatin killing the same way; inactive = no consistent shift, or siRNA harmful alone
This is one part, drawn at random, of about 23,000 reagents. 455 of them (2%) count as active. 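Active includes both protection and sensitisation; some change values fall well beyond the stated -50 to +50 range.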 Unmarked entries are inactive. Reagents against one gene are numbered here. Reagent sequences are not shown. The record does not give: the amount of reagent.

| gene | reagent no. | two-siRNA summed score (-2 to +2) | mean protection from cisplatin (shift in death) (%) | protection from cisplatin (shift in death), siRNA C (%) | protection from cisplatin (shift in death), siRNA D (%) |
| --- | --- | --- | --- | --- | --- |
| S100PBP | 1 | 0 | 8.9 | 14.7 | 3.1 |
| HNRNPR | 1 | 0 | 12.8 | 18.3 | 7.3 |
| GRIN3A | 1 | 0 | 14 | 24.4 | 3.6 |
| FAM193A | 1 | 0 | 4.6 | -0.4 | 9.6 |
| SPDYA | 1 | 0 | 7.3 | 10.8 | 3.8 |
| RHBDF2 | 1 | 0 | -5.5 | 1.8 | -12.9 |
| MYF5 | 1 | 0 | 2.7 | -5.6 | 11 |
| HSPB9 | 1 | 0 | 5.3 | 21.6 | -11.1 |
| MS4A15 | 1 | 0 | 9.4 | 4.7 | 14 |
| TMEM134 | 1 | 0 | 4.8 | -6.9 | 16.6 |
| LRRC45 | 1 | 0 | 18.3 | 5.5 | 31.1 |
| GABRP | 1 | 0 | 1.1 | 20.2 | -18 |
| LOC440892 | 1 | 0 | 6.1 | 8.9 | 3.3 |
| KNL1 | 1 | 0 | 3.1 | 4.1 | 2.1 |
| LOC441459 | 1 | 1 | 13 | 12.5 | 13.4 |
| OR4C3 | 1 | 0 | 5.3 | 13.4 | -2.8 |
| SLC16A7 | 1 | 0 | 4.6 | 4.6 | 4.7 |
| TNK2 | 1 | 0 | 12.1 | 25.6 | -1.4 |
| RDH5 | 1 | -1 | -9.9 | -26.3 | 6.5 |
| MKX | 1 | 0 | 5.9 | 5.4 | 6.4 |
| CDKN1B | 1 | 1 | 9.6 | 21.2 | -2 |
| TRIM51EP | 1 | 0 | 5.1 | 3.3 | 6.8 |
| CSAG1 | 1 | 2 (active) | 19.4 | 18.9 | 19.9 |
| KBTBD4 | 1 | -1 | -12.7 | -20.9 | -4.5 |
| NUDT13 | 1 | 0 | 2.4 | 4.4 | 0.3 |
| CCDC43 | 1 | 0 | 9.8 | 12.6 | 7 |
| ZC2HC1C | 1 | 0 | 12.1 | 14.2 | 10 |
| PCSK7 | 1 | 0 | -25.7 | -27.3 | -24.1 |
| ACIN1 | 1 | 0 | 11.8 | 15.1 | 8.4 |
| STAP2 | 1 | 0 | 1.6 | 4.7 | -1.4 |
| STAP2 | 2 | 0 | 3.5 | 17.5 | -10.5 |
| LOC402426 | 1 | 0 | 6.1 | 6.7 | 5.4 |
| SYTL2 | 1 | 1 | 11.8 | 22.2 | 1.5 |
| LOC401539 | 1 | 1 | 19.9 | 15 | 24.7 |
| FAM241B | 1 | 0 | -1.5 | -11.4 | 8.5 |
| LOC440127 | 1 | 0 | 9.7 | 9.9 | 9.5 |
| LOC400962 | 1 | 0 | 16.2 | 27.1 | 5.2 |
| CEP78 | 1 | 0 | 9.5 | 7.7 | 11.2 |
| MIR3150BHG | 1 | 0 | 10.4 | 14.6 | 6.1 |
| LOC391800 | 1 | 1 | 19.8 | 15.1 | 24.5 |
| LOC400571 | 1 | 0 | 13.1 | 12.6 | 13.5 |
| JTB | 1 | 0 | 4.7 | -2.3 | 11.8 |
| ARRB1 | 1 | 1 | 10.2 | -1 | 21.5 |
| EPHB3 | 1 | 1 | 5.8 | -11.1 | 22.7 |
| ACBD4 | 1 | 0 | 7.5 | 9.9 | 5.2 |
| ERC2 | 1 | 0 | -2.4 | -7.4 | 2.5 |
| PPM1B | 1 | -2 (active) | -18.5 | -18 | -18.9 |
| LOC401599 | 1 | 0 | 3.9 | -10.4 | 18.2 |
| ABLIM2 | 1 | 0 | 2.9 | 14.4 | -8.5 |
| PNO1 | 1 | 0 | -3.8 | -8.1 | 0.6 |
| ABT1 | 1 | -1 | 0.1 | -24.5 | 24.7 |
| LOC388751 | 1 | 1 | 2.1 | -14.2 | 18.4 |
| COL20A1 | 1 | 0 | 5.1 | 4.6 | 5.6 |
| FCRLA | 1 | 0 | -5.6 | -7.4 | -3.7 |
| FLOT2 | 1 | -2 (active) | -17 | -13.8 | -20.2 |
| CACNG2 | 1 | 0 | 4.6 | 6.6 | 2.6 |
| LOC388139 | 1 | 0 | 3.9 | 8.3 | -0.5 |
| LOC441329 | 1 | 0 | -6.9 | -8.9 | -4.9 |
| PDE10A | 1 | 0 | 4.9 | -14.7 | 24.6 |
| LOC391137 | 1 | 0 | 8.6 | 6.7 | 10.5 |
| LINC02709 | 1 | 0 | 20.5 | 1.6 | 39.3 |
| MVK | 1 | 0 | -0.2 | 3.3 | -3.6 |
| CFDP1 | 1 | 2 (active) | 20.2 | 18.2 | 22.2 |
| PIH1D1 | 1 | 0 | -0.4 | -6.6 | 5.8 |
| GGN | 1 | 0 | 16.3 | 11.1 | 21.6 |
| SLC17A2 | 1 | 1 | 5.7 | 18.9 | -7.4 |
| SNED1 | 1 | 0 | -4.1 | -10.7 | 2.4 |
| FAM181A | 1 | 0 | -3.8 | 3.6 | -11.2 |
| LOC441237 | 1 | 0 | 3.1 | -0.2 | 6.3 |
| AHR | 1 | 0 | 5.3 | 1.1 | 9.6 |
| PRSS45P | 1 | 0 | 11 | 13.1 | 8.9 |
| PPP1R13B | 1 | -1 | -7.7 | 1.9 | -17.3 |
| TSLP | 1 | 0 | -0.4 | 5.3 | -6.1 |
